PubChem BioAssay AID270 (DTP/NCI, 2004)
The list does not hold the whole screen: it gathers tests that were run many times, whatever their T/C, doses with no T/C, and many T/C values between a quarter and a half above the control. Further doses and runs are listed elsewhere. T/C gives the treated animals as a percentage of the vehicle group. Schedules are NCI's codes, taken here to give the interval after Q, in days (D) or hours (H), and the number of doses after X. Some doses have a count of surviving animals in place of a T/C: the source files T/C as zero there, which appears to mark a toxic dose or a test without result, not a measured value. Some survivor counts are full or nearly so, which does not show that the dose was tolerated: survival well below the control is almost never listed, so the zero probably covers shortened survival too. Counts of survivors are from the toxicity check (mostly the fifth day) where no day follows; animals may have died later. Some molecules as drawn cover several salts, stereoisomers or complexes of the source; a dose is that of the sample tested. Counts like (3×) say how often a value occurs here. Some entries hold several experiments; the results are listed from low to high. For survival time, the PubChem record calls one and a half times the control and up active, and a quarter to a half above the control has no call in these data; cut-offs in other NCI protocols can differ. Some T/C values are followed by the survivors on the day toxicity was checked, most often the fifth; where none is given, no animal had died by that day.

Test system: BDF1 mice, s.c. Lewis lung carcinoma, T/C %
Experiment: NCI In Vivo Anticancer Drug Screen. Data for tumor model Lewis Lung Carcinoma (subcutaneous) in B6D2F1 (BDF1) mice
Outline: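 Transplanted tumors grown in mice; compound vs vehicle dosing; endpoint survival or tumor size; ratio T/C.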

[1] = T/C endpoint: median survival time, dose: 100.0 mg/kg/injection, schedule: Q01DX009 (ip), vehicle: saline, higher T/C = longer survival
[2] = T/C endpoint: median survival time, dose: 0.4 mg/kg/injection, schedule: Q01DX009 (ip), vehicle: saline, higher T/C = longer survival

With `Cc1ccc(NC(=O)N(CCCl)N=O)cc1NC(=O)N(CCCl)N=O` the survivor count (T/C endpoint: median survival time, dose: 12.5 mg/kg/injection, schedule: Q01DX009 (ip), vehicle: other, higher T/C = longer survival) was 10 of 10 and the survivor count (T/C endpoint: median survival time, dose: 25.0 mg/kg/injection, schedule: Q01DX009 (ip), vehicle: other, higher T/C = longer survival) was 10 of 10.
With `CC1(C)N=C(N)N=C(N)N1c1ccc(F)c(C(F)(F)F)c1` the survivor count (T/C endpoint: median survival time, dose: 50.0 mg/kg/injection, schedule: Q01DX009 (ip), vehicle: saline, higher T/C = longer survival) was 10 of 10 and the survivor count [1] was 2 of 10.
With `Nc1nc(N)nc(N)n1` the survivor count (T/C endpoint: median survival time, dose: 800.0 mg/kg/injection, schedule: Q01DX009 (ip), vehicle: saline with Tween-80, higher T/C = longer survival) was 1 of 10 and the survivor count (T/C endpoint: median survival time, dose: 1600.0 mg/kg/injection, schedule: Q01DX009 (ip), vehicle: saline with Tween-80, higher T/C = longer survival) was 4 of 10.
For `O=C(O)C(=O)c1ccc(-c2ccccc2)cc1`, the survivor count (T/C endpoint: mean tumor weight, dose: 110.0 mg/kg/injection, schedule: Q01DX011 (ip), vehicle: methylcellulose (MC), higher T/C = larger tumour) was 0 of 7, the survivor count (T/C endpoint: mean tumor weight, dose: 165.0 mg/kg/injection, schedule: Q01DX011 (ip), vehicle: methylcellulose (MC), higher T/C = larger tumour) was 0 of 7 and the survivor count (T/C endpoint: mean tumor weight, dose: 250.0 mg/kg/injection, schedule: Q01DX011 (ip), vehicle: methylcellulose (MC), higher T/C = larger tumour) was 0 of 7. For the same compound, the survivor count (T/C endpoint: mean tumor weight, dose: 375.0 mg/kg/injection, schedule: Q01DX011 (ip), vehicle: methylcellulose (MC), higher T/C = larger tumour) was 0 of 7.
`O=c1[nH]cc(N(CCCl)CCCl)c(=O)[nH]1` was tested, and the survivor count (T/C endpoint: mean tumor weight, dose: 0.85 mg/kg/injection, schedule: Q01DX011 (ip), vehicle: carboxymethylcellulose (CMC), higher T/C = larger tumour) was 6 of 10, the survivor count (T/C endpoint: mean tumor weight, dose: 1.7 mg/kg/injection, schedule: Q01DX011 (ip), vehicle: carboxymethylcellulose (CMC), higher T/C = larger tumour) was 4 of 10 and the T/C (T/C endpoint: median survival time, dose: 0.25 mg/kg/injection, schedule: Q01DX009 (ip), vehicle: saline, higher T/C = longer survival) was 136 % of control. The T/C (T/C endpoint: median survival time, dose: 0.5 mg/kg/injection, schedule: Q01DX009 (ip), vehicle: saline, higher T/C = longer survival) was 136 % of control, the survivor count (T/C endpoint: median survival time, dose: 1.0 mg/kg/injection, schedule: Q01DX009 (ip), vehicle: saline, higher T/C = longer survival) was 10 of 10 and the survivor count (T/C endpoint: median survival time, dose: 2.0 mg/kg/injection, schedule: Q01DX009 (ip), vehicle: saline, higher T/C = longer survival) was 10 of 10. The survivor count (T/C endpoint: median survival time, dose: 4.0 mg/kg/injection, schedule: Q01DX009 (ip), vehicle: saline, higher T/C = longer survival) was 9 of 10.
With `Nc1nc(N)c2nc(CN(CCO)c3ccc(C(=O)NC(CCC(=O)O)C(=O)O)cc3)cnc2n1` (stereo not given) the survivor count (T/C endpoint: median survival time, dose: 4.0 mg/kg/injection, schedule: Q01DX009 (ip), vehicle: Klucel (hydroxypropylcellulose) (HPC), higher T/C = longer survival) was 10 of 10 and the survivor count (T/C endpoint: median survival time, dose: 8.0 mg/kg/injection, schedule: Q01DX009 (ip), vehicle: Klucel (hydroxypropylcellulose) (HPC), higher T/C = longer survival) was 10 of 10.
In the case of `C=C1C(=O)OC2CC1C(O)C/C(C)=C/CC/C(C)=C/C(O)CC2C` (stereo not given), the survivor count (T/C endpoint: median survival time, dose: 50.0 mg/kg/injection, schedule: Q01DX009 (ip), vehicle: Klucel (hydroxypropylcellulose) (HPC), higher T/C = longer survival) is reported as 9 of 10.
For `CC(C)([NH-])CO.CC(C)([NH-])CO.[Cl][Cd][Cl]`, the survivor count (T/C endpoint: mean tumor weight, dose: 8.0 mg/kg/injection, schedule: Q01DX011 (ip), vehicle: saline, higher T/C = larger tumour) was 2 of 6, the survivor count (T/C endpoint: mean tumor weight, dose: 16.0 mg/kg/injection, schedule: Q01DX011 (ip), vehicle: saline, higher T/C = larger tumour) was 0 of 6 and the survivor count (T/C endpoint: mean tumor weight, dose: 24.0 mg/kg/injection, schedule: Q01DX011 (ip), vehicle: saline, higher T/C = larger tumour) was 0 of 6. For the same compound, the survivor count (T/C endpoint: mean tumor weight, dose: 32.0 mg/kg/injection, schedule: Q01DX011 (ip), vehicle: saline, higher T/C = larger tumour) was 0 of 6.
With `O=C(O)CCC(=O)O` the survivor count (T/C endpoint: median survival time, dose: 2.5 mg/kg/injection, schedule: Q01DX009 (ip), vehicle: water, higher T/C = longer survival) was 10 of 10, the survivor count (T/C endpoint: median survival time, dose: 10.0 mg/kg/injection, schedule: Q01DX009 (ip), vehicle: water, higher T/C = longer survival) was 10 of 10 and the survivor count (T/C endpoint: median survival time, dose: 20.0 mg/kg/injection, schedule: Q01DX009 (ip), vehicle: water, higher T/C = longer survival) was 10 of 10. For the same compound, the survivor count (T/C endpoint: median survival time, dose: 40.0 mg/kg/injection, schedule: Q01DX009 (ip), vehicle: water, higher T/C = longer survival) was 10 of 10, the survivor count (T/C endpoint: median survival time, dose: 80.0 mg/kg/injection, schedule: Q01DX009 (ip), vehicle: water, higher T/C = longer survival) was 10 of 10 and the survivor count (T/C endpoint: median survival time, dose: 160.0 mg/kg/injection, schedule: Q01DX009 (ip), vehicle: water, higher T/C = longer survival) was 10 of 10 (2×).
With `O=C(O)Cc1ccc(C2CCCCC2)cc1` the survivor count (T/C endpoint: mean tumor weight, dose: 500.0 mg/kg/injection, schedule: Q01DX011 (ip), vehicle: carboxymethylcellulose (CMC), higher T/C = larger tumour) was 2 of 6.
With `Fc1ccc(NC(=S)Nc2cc(Cl)cc(Cl)c2)cc1` the survivor count (T/C endpoint: mean tumor weight, dose: 30.0 mg/kg/injection, schedule: Q01DX011 (ip), vehicle: carboxymethylcellulose (CMC), higher T/C = larger tumour) was 3 of 6 and the survivor count (T/C endpoint: mean tumor weight, dose: 60.0 mg/kg/injection, schedule: Q01DX011 (ip), vehicle: carboxymethylcellulose (CMC), higher T/C = larger tumour) was 2 of 6.
In the case of `CN(/N=N/c1nc[nH]c1C(N)=O)C(C)(C)C`, the survivor count (T/C endpoint: median survival time, dose: 100.0 mg/kg/injection, schedule: Q01DX009 (ip), vehicle: Klucel (hydroxypropylcellulose) (HPC), higher T/C = longer survival) is reported as 10 of 10.
In the case of `Nc1ncn(C2CC(O)C(CO)O2)c(=O)n1` (stereo not given), the T/C (T/C endpoint: median survival time, dose: 0.05 mg/kg/injection, schedule: Q01DX009 (ip), vehicle: Klucel (hydroxypropylcellulose) (HPC), higher T/C = longer survival) is reported as 144 % of control, the T/C (T/C endpoint: median survival time, dose: 0.1 mg/kg/injection, schedule: Q01DX009 (ip), vehicle: Klucel (hydroxypropylcellulose) (HPC), higher T/C = longer survival) is reported as 136 % of control and the T/C (T/C endpoint: median survival time, dose: 0.2 mg/kg/injection, schedule: Q01DX009 (ip), vehicle: Klucel (hydroxypropylcellulose) (HPC), higher T/C = longer survival) is reported as 130 % of control. The T/C (T/C endpoint: median survival time, dose: 0.4 mg/kg/injection, schedule: Q01DX009 (ip), vehicle: Klucel (hydroxypropylcellulose) (HPC), higher T/C = longer survival) was 144 % of control, the T/C [2] was 131 % of control and the survivor count [2] was 10 of 10. For the same compound, the survivor count (T/C endpoint: median survival time, dose: 0.8 mg/kg/injection, schedule: Q01DX009 (ip), vehicle: saline, higher T/C = longer survival) was 10 of 10, the survivor count (T/C endpoint: median survival time, dose: 1.6 mg/kg/injection, schedule: Q01DX009 (ip), vehicle: saline, higher T/C = longer survival) was 10 of 10 and the survivor count (T/C endpoint: median survival time, dose: 3.2 mg/kg/injection, schedule: Q01DX009 (ip), vehicle: saline, higher T/C = longer survival) was 10 of 10.
In the case of `C[C@@H]1C[C@@H]([C@@H](CC2CC(=O)NC(=O)C2)OC(=O)CC(=O)c2ccccc2)C(=O)[C@@H](C)C1`, the survivor count (T/C endpoint: mean tumor weight, dose: 5.0 mg/kg/injection, schedule: Q01DX011 (ip), vehicle: carboxymethylcellulose (CMC), higher T/C = larger tumour) is reported as 1 of 6 and the survivor count (T/C endpoint: mean tumor weight, dose: 10.0 mg/kg/injection, schedule: Q01DX011 (ip), vehicle: carboxymethylcellulose (CMC), higher T/C = larger tumour) is reported as 2 of 6.
In the case of `C=C1C(=O)O[C@H]2C=C(C)[C@H]3[C@@H](OC(C)=O)C[C@@](C)(O)[C@@H]3C[C@H]12`, the survivor count (T/C endpoint: mean tumor weight, dose: 50.0 mg/kg/injection, schedule: Q01DX011 (ip), vehicle: carboxymethylcellulose (CMC), higher T/C = larger tumour) is reported as 0 of 4, the survivor count (T/C endpoint: mean tumor weight, dose: 100.0 mg/kg/injection, schedule: Q01DX011 (ip), vehicle: carboxymethylcellulose (CMC), higher T/C = larger tumour) is reported as 0 of 4 and the survivor count (T/C endpoint: mean tumor weight, dose: 200.0 mg/kg/injection, schedule: Q01DX011 (ip), vehicle: carboxymethylcellulose (CMC), higher T/C = larger tumour) is reported as 0 of 4.
With `CC(=O)OC(C)(C)/C=C/C(=O)[C@](C)(O)[C@H]1[C@H](O)C[C@@]2(C)[C@@H]3CC=C4[C@@H](C[C@H](O)C(=O)C4(C)C)[C@]3(C)C(=O)C[C@]12C` the survivor count (T/C endpoint: mean tumor weight, dose: 0.57 mg/kg/injection, schedule: Q01DX011 (ip), vehicle: saline, higher T/C = larger tumour) was 1 of 6 and 2 of 6, the survivor count (T/C endpoint: mean tumor weight, dose: 0.8 mg/kg/injection, schedule: Q01DX011 (ip), vehicle: carboxymethylcellulose (CMC), higher T/C = larger tumour) was 0 of 4 and the survivor count (T/C endpoint: mean tumor weight, dose: 0.86 mg/kg/injection, schedule: Q01DX011 (ip), vehicle: saline, higher T/C = larger tumour) was 0 of 6. For the same compound, the survivor count (T/C endpoint: mean tumor weight, dose: 1.3 mg/kg/injection, schedule: Q01DX011 (ip), vehicle: saline, higher T/C = larger tumour) was 0 of 6, the survivor count (T/C endpoint: mean tumor weight, dose: 1.6 mg/kg/injection, schedule: Q01DX011 (ip), vehicle: carboxymethylcellulose (CMC), higher T/C = larger tumour) was 0 of 4 and the survivor count (T/C endpoint: mean tumor weight, dose: 2.0 mg/kg/injection, schedule: Q01DX011 (ip), vehicle: saline, higher T/C = larger tumour) was 0 of 6.
For `Nc1ccccc1Br`, the T/C (T/C endpoint: mean tumor weight, dose: 148.0 mg/kg/injection, schedule: Q01DX011 (ip), vehicle: other, evaluated on day 12, higher T/C = larger tumour) was 143 % of control and the survivor count (T/C endpoint: mean tumor weight, dose: 500.0 mg/kg/injection, schedule: Q01DX011 (ip), vehicle: other, higher T/C = larger tumour) was 3 of 6.
In the case of `COC1=NCN=C2SC=C(N)N=C12`, the survivor count [1] is reported as 8 of 10.
For `COC1C(O)CC(OC2CC(OC3CC(O[C@@H]4C(=O)c5c(cc6cc(OC7CC(OC8CC(O)C(O)C(C)O8)C(O)C(C)O7)c(C)c(O)c6c5O)C[C@H]4[C@H](OC)C(=O)[C@@H](O)[C@@H](C)O)OC(C)C3O)OC(C)C2O)OC1C` (stereo not given in full), the T/C (T/C endpoint: median survival time, dose: 300.0 micrograms/kg/injection, schedule: Q01DX009 (ip), vehicle: water, higher T/C = longer survival) was 128 % of control [9 of 10 alive].
In the case of `Nc1ccc(Cl)c(N)c1`, the survivor count (T/C endpoint: mean tumor weight, dose: 75.0 mg/kg/injection, schedule: Q01DX011 (ip), vehicle: saline, higher T/C = larger tumour) is reported as 3 of 6.
For `O=C(O)c1c2c(nc3ccccc13)Cc1ccccc1-2`, the survivor count (T/C endpoint: median survival time, dose: 300.0 mg/kg/injection, schedule: Q01DX009 (ip), vehicle: Klucel (hydroxypropylcellulose) (HPC), higher T/C = longer survival) was 4 of 10.
